This is an account of results in PubChem BioAssay AID248 (DTP/NCI, 2004).

The assay concerns L1210 leukemia ip in BDF1 mice, survival T/C. Briefly: NCI In Vivo Anticancer Drug Screen. Data for tumor model L1210 Leukemia (intraperitoneal) in B6D2F1 (BDF1) mice. The settings on record: T/C endpoint: mean survival time, higher T/C = longer survival.
Setting [1] is: dose: 100.0 mg/kg/injection, schedule: Q01DX009 (ip), vehicle: Klucel (hydroxypropylcellulose) (HPC).
[2] abbreviates: dose: 200.0 mg/kg/injection, schedule: Q04DX003 (ip), vehicle: Klucel (hydroxypropylcellulose) (HPC).
Setting [3] is: dose: 400.0 mg/kg/injection, schedule: Q04DX003 (ip), vehicle: Klucel (hydroxypropylcellulose) (HPC).
The mark [4] stands for this setting: dose: 400.0 mg/kg/injection, schedule: Q01DX009 (ip), vehicle: Klucel (hydroxypropylcellulose) (HPC).
[5] abbreviates: dose: 100.0 mg/kg/injection, schedule: Q01DX009 (ip), vehicle: saline.
[6] abbreviates: dose: 200.0 mg/kg/injection, schedule: Q01DX009 (ip), vehicle: saline.
Where [7] appears, read: dose: 400.0 mg/kg/injection, schedule: Q04DX003 (ip), vehicle: saline.
Setting [8] is: dose: 100.0 mg/kg/injection, schedule: Q01DX001 (ip), vehicle: saline.
The mark [9] stands for this setting: dose: 200.0 mg/kg/injection, schedule: Q01DX001 (ip), vehicle: saline.
The mark [10] stands for this setting: dose: 400.0 mg/kg/injection, schedule: Q01DX001 (ip), vehicle: saline.
Setting [11] is: dose: 400.0 mg/kg/injection, schedule: Q04DX003 (ip), vehicle: saline with Tween-80.

The list is a part of this screen's results and no random one: it is rich in T/C values a quarter to a half above the control, in often repeated tests (any T/C) and in doses without a T/C. Other doses and runs of a compound stand elsewhere. T/C is the treated group as % of the vehicle group. Some doses have a count of surviving animals in place of a T/C: the source files T/C as zero there, which appears to mark a toxic dose or a test without result, not a measured value. Some doses without a T/C left all or most animals alive at the check, yet need not have been tolerated: survival well below the control is almost never listed, so the zero probably covers shortened survival too. Survivors were counted at the toxicity check, usually on the fifth day, unless a day is given; later deaths do not show. Schedule codes are those of the source, read here as Q, the interval in days (D) or hours (H), X, the number of doses. Some schedule codes hold Z or #, which are not explained here. Where survival is the endpoint, the PubChem record calls one and a half times the control and up active, and a quarter to a half above the control has no call in these data; cut-offs in other NCI protocols can differ. Some T/C values are followed by the survivors on the day toxicity was checked, most often the fifth; where none is given, no animal had died by that day.

Turning to `CCCC/C(=N\NC(N)=S)c1ccc(F)cc1`, the survivor count was 0 of 6 (dose: 15.0 mg/kg/injection, schedule: Q01DX Z (ip), vehicle: methylcellulose (MC)); 5 of 6 (dose: 30.0 mg/kg/injection, schedule: Q01DX Z (ip), vehicle: methylcellulose (MC)); 5 of 6 (dose: 60.0 mg/kg/injection, schedule: Q01DX Z (ip), vehicle: methylcellulose (MC)); 2 of 6 (dose: 60.0 mg/kg/injection, schedule: Q01DX Z (oral), vehicle: methylcellulose (MC)); 0 of 6 (dose: 120.0 mg/kg/injection, schedule: Q01DX Z (ip), vehicle: methylcellulose (MC)); 1 of 6 (dose: 120.0 mg/kg/injection, schedule: Q01DX Z (oral), vehicle: methylcellulose (MC)). Where the note is “dose: 240.0 mg/kg/injection, schedule: Q01DX Z (oral), vehicle: methylcellulose (MC)”, the survivor count was 0 of 6.

For the molecule `C[P+](c1ccc(F)cc1)(c1ccc(F)cc1)c1ccc(F)cc1`, the survivor count reads like this: under setting [1], 6 of 6; under setting [2], 0 of 6; under setting [3], 0 of 6.

Turning to `CC(=O)Nc1ccc(Br)cc1`, the survivor count is recorded as 4 of 4 (dose: 400.0 mg/kg/injection, schedule: Q01DX001 (ip), vehicle: carboxymethylcellulose (CMC)) and 4 of 6 under setting [4].

On to `Nc1nc(N)c2cc(CNc3ccc(C(=O)NC(CCC(=O)O)C(=O)O)cc3)cnc2n1` (stereo not given), for which the survivor count (dose: 100.0 mg/kg/injection, schedule: Q01DX001 (ip), vehicle: other) was 4 of 6; the survivor count (dose: 200.0 mg/kg/injection, schedule: Q01DX001 (ip), vehicle: other) is reported as 3 of 6; the survivor count (dose: 400.0 mg/kg/injection, schedule: Q01DX001 (ip), vehicle: other) is given as 3 of 6.

As for `CC(C)(O)C(Cc1ccccc1)c1ccccc1` (stereo not given), the survivor count is, setting by setting: (dose: 100.0 mg/kg/injection, schedule: Q04DX002 (ip), vehicle: saline with Tween-80) 1 of 3; (dose: 200.0 mg/kg/injection, schedule: Q04DX002 (ip), vehicle: saline with Tween-80) 0 of 3; (dose: 400.0 mg/kg/injection, schedule: Q04DX002 (ip), vehicle: saline with Tween-80) 0 of 3.

On to `O=C(SCC(NSc1ccccc1[N+](=O)[O-])C(=O)O)c1ccccc1` (stereo not given), for which the survivor count by setting is: (dose: 100.0 mg/kg/injection, schedule: Q04DX003 (ip), vehicle: Klucel (hydroxypropylcellulose) (HPC)) 6 of 6; under setting [2], 6 of 6; under setting [3], 6 of 6.

Take `CC(=O)Oc1c(C2CCCCC2)cc([N+](=O)[O-])cc1[N+](=O)[O-]`: the survivor count under setting [3] was 2 of 6.

On to `OC(c1ccccc1)C1C(c2ccccc2)N1C1CCCCC1` (stereo not given), for which the survivor count is, setting by setting: under setting [1], 5 of 6; under setting [3], 5 of 6.

As for `CC1NCCOC1c1ccccc1` (stereo not given), the survivor count by setting is: under setting [5], 6 of 6; under setting [6], 0 of 6; under setting [7], 1 of 4.

Regarding `COc1c2c(cc3c1N(C)C(=O)CC3C)C(C)CC(=O)N2` (stereo not given), the survivor count (dose: 150.0 mg/kg/injection, schedule: Q04DX003 (ip), vehicle: Klucel (hydroxypropylcellulose) (HPC)) is reported as 3 of 6 and the survivor count (dose: 300.0 mg/kg/injection, schedule: Q04DX003 (ip), vehicle: Klucel (hydroxypropylcellulose) (HPC)) was 0 of 6.

Take `C/C=C1/CC(C)C(O)(CO)C(=O)OCC2=CCN3CCC(OC1=O)C23` (stereo not given): the survivor count is, setting by setting: (dose: 150.0 mg/kg/injection, schedule: Q01DX001 (ip), vehicle: carboxymethylcellulose (CMC)) 0 of 6; (dose: 300.0 mg/kg/injection, schedule: Q01DX001 (ip), vehicle: carboxymethylcellulose (CMC)) 0 of 6.

As to `C=C1CC[N+]2(CC(=O)c3ccc(Br)cc3)CCCC12` (stereo not given), the survivor count under setting [8] is listed as 2 of 6, the survivor count under setting [9] is 1 of 6 and the survivor count under setting [10] is 0 of 6.

As to `NC1CC=CCC1c1ccc2c(c1)OCO2` (stereo not given), for the setting “dose: 300.0 mg/kg/injection, schedule: Q01DX001 (ip), vehicle: saline”, the survivor count is given as 0 of 6.

For `COc1ccc(S(=O)(=O)F)cc1NC(=O)CCc1ccc(N2C(N)=NC(N)=NC2(C)C)cc1`, the survivor count (dose: 400.0 mg/kg/injection, schedule: Q01DX001 (ip), vehicle: gum acacia) is given as 0 of 6.

Regarding `Cc1cnc2cccc(C)c2c1Cl`, under setting [10], the survivor count is listed as 1 of 4.

`CN1CCc2ccc(O)cc2C1`: under setting [7], the survivor count was 3 of 6.

`c1cc2c(c(NC3=NCCCS3)c1)CCCC2`: under setting [4], the survivor count is reported as 0 of 6.

Turning to `CCN(CC)CC(C)OC(=O)CCN1CC1` (stereo not given), the survivor count is 3 of 6 under setting [5] and 0 of 6 under setting [7].

Regarding `COC(=O)C1CC(C)(C)N(C)C1(C)C` (stereo not given), the survivor count runs as follows: under setting [1], 2 of 6; under setting [4], 0 of 6; under setting [3], 0 of 6.

Consider `O=CC(CCN1CCCC1)(CCN1CCCC1)c1cccc2ccccc12`, for which the survivor count runs as follows: under setting [5], 1 of 6; under setting [6], 0 of 6; (dose: 400.0 mg/kg/injection, schedule: Q01DX009 (ip), vehicle: saline) 0 of 6.

As for `OCCN1CCN(CCCN2c3ccccc3Oc3ccc(C(F)(F)F)cc32)CC1`, the survivor count is, setting by setting: (dose: 100.0 mg/kg/injection, schedule: Q04DX003 (ip), vehicle: saline) 1 of 4; (dose: 200.0 mg/kg/injection, schedule: Q04DX003 (ip), vehicle: saline) 0 of 4; under setting [7], 1 of 4.

As to `Nc1ncnc2c1nnn2C1OC(CO)C(O)C1O` (stereo not given), the T/C was 125 % of control (dose: 15.0 mg/kg/injection, schedule: Q01DX015 (ip), vehicle: saline); 142 % of control (dose: 28.0 mg/kg/injection, schedule: Q01DX015 (ip), vehicle: saline); 133 % of control (dose: 42.0 mg/kg/injection, schedule: Q01DX015 (ip), vehicle: saline); 125 % of control [4 of 6 alive] (dose: 270.0 mg/kg/injection, schedule: Q01DX001 (ip), vehicle: saline); 131 % of control [4 of 6 alive] (dose: 400.0 mg/kg/injection, schedule: Q01DX001 (ip), vehicle: saline, evaluated on day 30); 139 % of control [5 of 6 alive] (dose: 400.0 mg/kg/injection, schedule: Q01DX001 (ip), vehicle: saline, run until all animals had died). In addition, the survivor count (dose: 120.0 mg/kg/injection, schedule: Q01DX015 (ip), vehicle: saline) is reported as 6 of 6; the survivor count (dose: 200.0 mg/kg/injection, schedule: Q01DX015 (ip), vehicle: saline) was 4 of 6; the survivor count (dose: 600.0 mg/kg/injection, schedule: Q01DX001 (ip), vehicle: saline) is on record as 1 of 6; the survivor count (dose: 800.0 mg/kg/injection, schedule: Q01DX001 (ip), vehicle: saline) is 2 of 6.

On to `CC(C)(C)OOC(=O)Nc1ccc(Cl)cc1`, for which the survivor count (dose: 100.0 mg/kg/injection, schedule: Q01DX001 (ip), vehicle: saline with Tween-80) is 3 of 3.

In the case of `CCCCCCCCCCCCCCCC(=O)OCC1OC(CO)(OC2OC(CO)C(O)C(O)C2O)C(O)C1O` (stereo not given), the survivor count under setting [4] is given as 2 of 6.

As for `[O-]/[N+](=C\c1ccc(/C=[N+](\[O-])c2ccccc2)cc1)c1ccccc1`, the survivor count by setting is: under setting [8], 4 of 4; under setting [9], 4 of 4; under setting [10], 4 of 4.

As for `N/C(=N\O)c1ccc(Cl)cc1`, the survivor count under setting [11] is 2 of 6.

For `N#Cc1ncc(-c2ccccc2)nc1Cl`, the survivor count under setting [11] is listed as 6 of 6.

As for `CCOC(=O)C(C#N)c1cccc(C)c1` (stereo not given), the survivor count under setting [11] is on record as 0 of 6.

In the case of `Cc1c(C(=O)Nc2ccc(C3=NCCN3)cc2)cccc1C(=O)Nc1ccc(C2=NCCN2)cc1`, the T/C (dose: 190.0 mg/kg/injection, schedule: Q01DX Z (ip), vehicle: carboxymethylcellulose (CMC)) is 129 % of control [4 of 6 alive]. Moreover, the survivor count (dose: 380.0 mg/kg/injection, schedule: Q01DX Z (ip), vehicle: carboxymethylcellulose (CMC)) is listed as 0 of 6.
